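Genome-wide siRNA knockdown in TC32 Ewing sarcoma cells, comparing luciferase light from an NR0B1-promoter reporter with a CMV-promoter reporter 48 hours after transfection. Each siRNA was applied at 20 nM. A z-score of the log NR0B1-over-CMV signal, less the median of siRNAs with the same seed; more negative means a stronger specific loss of the NR0B1 reporter.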

This is part of the screen; most of the strongest results are not listed here. Sequences are the guide (antisense) strand, without overhang.

siRNA,target gene,seed-corrected z-score
UCUGAAGCAACGAUGCUCG,COPS4,0.2359
UGAGCAGAGAAAGCGCAGC,FAM98C,1.258
AUGUUUGUCACGCUCAUAC,MIEF1,-1.655
UUAGCUGUUUCCUUACUGC,CARF,-0.1177
UUUAUAAACUGAGACAUGC,KIAA1147,-0.4962
UUCCAAUCUGCUAAUACCC,GGNBP2,0.03932
UAUCUAGUAAAGUACUCAC,ADAM30,-0.1022
UUUUGUGGUAGGUAAAUUC,RASA3,0.5313
UGCAGAACGUUGUUGAGGG,JOSD2,0.9694
UUGUGGGUCAGAAACUUAC,EME1,-0.06555
UCUGGGCUAAUGCUGUUCU,LRRC73,-1.007
AAUGAGUCACGAGUUCUCC,C1orf229,-0.5584
UCAGGUUUGACCUCCCAGG,MROH6,0.8498
AAUAUAGAACUUGCGAUUG,HHIPL2,0.8169
AACAGAACUAUCUUGCCCA,LOC642947,-0.7075
UCCACUAUUAUAUUGUGCU,GPR148,-0.08354
UCUGCAAUUUCUCAUGAGG,C19orf45,0.04144
UUCGGUUCAAUUCGAGAUG,LRIG3,0.9727
UCUGCGAUUUUCUUGAUGC,BRK1,0.298
UCAGUGAAAAGUACCUAGC,TMEM235,0.4166
ACUGGAACCAACGCUUACG,SPDYE2,0.01633
UUUCCUGUAAGCAAUUUCC,ARSJ,0.2603
UUCUCCAUGAUUAUCACCG,MROH2A,0.4173
UCUCAGAGAAGUCCUUCCG,HEXIM2,0.0009442
UGAGUUGUCAACCUGUUUC,RPL10,-0.03641
UUCGUGAUUAUUCCCAUCG,GFPT2,-0.6474
UAACAGAAAUGUAGCAGGC,OR14C36,0.05601
UUCGGUUUGAGUGAGGCUG,KIAA2022,0.7244
UCUUUUUGCGGGAAAGUAU,INSL4,-0.4001
UGAAUUAUAGUGGAUAUUC,OTUD5,0.6702
UUUGGGACACGUAGCAUCG,LOC284912,-0.3194
UUUAUCUCUAUAUAGCUUG,UNC93A,0.8512
UUACUAUUUAGCUGGGAGG,TUB,-0.2327
UAUGAGUACACGUCAGCUC,USP5,-1.257
UCGAUGUGCACAGACAGGC,SNTA1,-0.4908
AGAGUUUUCACUAAGGCAG,CLEC1A,1.535
UUCCCGACUAACUUCAAUC,NCBP3,0.2954
UUUCAAUCUCGUGAGAAGC,SCARA3,0.3669
UUUACAUCCACAUCUGGUC,MIB1,0.07444
UUCACGUUAUGGUUGAGCU,DIRAS2,-0.1453
UUCCGAAUAACAAUGAGGU,LOC644504,0.4098
UGUUCUUUGGUCUAGGUCC,ING4,-0.881
UAUUUGACUGAGCACAGAC,CCT6B,0.2964
UCAUCAAUCAAGGGAAAGG,KRTAP6-3,-0.5115
UCUUCGUCCGGGUAGAAGC,MYCN,-0.4229
UAAAGAAAAUGUGAGUAAC,AKR7A3,-0.7451
UUUCUCAGCAGCAUCGGCU,ZFAND6,-0.2394
UUUGGUAAAAUGAGAGCGC,SREBF2,-0.2993
UAAUUCUUCCUAUUCCCGU,OXLD1,-0.8456
UUAGAUACUGGGCUGGUCA,XXYLT1,0.3995
UUAUAGACCUGCAUUGCUG,ZBTB8OS,-0.129
AGUACUAUGAAUCUUCUCC,AHI1,0.503
UUAUAGCUCACGUCCCUUC,RSPH4A,-0.9412
UGAUGUUCAAGAGUUGUGG,EIF3I,0.9473
UUGUUGAAAACUCGUGGGC,ZBTB47,0.8386
AAUGUGAUCAUUCCCUGUC,PDE9A,0.6844
UUUGCCUAAAAAGAUAGUC,BRIP1,-0.1049
UCAGUGGAAAGUAGCCGGC,MPEG1,0.5863
ACCUUUACCAGCUUCAGUC,ABHD12B,-0.7522
UACUAUUCCAAAAACAAUG,CYYR1,-0.3307
UUCCGGAAGAGCCUUUUCC,TRIM50,0.3961
UUCUACUUCACUAAAGGUG,CD46,-1.725
UUCCCGAAAAGAGACAUGG,IL1RL2,-0.5867
UUACUGAGGAAGUCCAUUC,SLC5A4,-1.36
UGUAAUAACUGGUUGAAUG,N6AMT1,0.1061
UCUUCGAACAUACUGUCUG,PPAT,-0.1362
UAUAGGACAAUGGACUCAG,BCO2,0.4975
UUAGAAGUAAAAGGUAAAG,HAUS2,0.1738
AAAGAUGUCACGGAGUAGC,IFRD2,0.3591
AUAUUACUUAGUUUCACUG,GSTA4,1.969
AUAGGAUUCAUUAGUGGAG,OR51B5,0.5449
AAUGCUAUAAAGCCGCAUG,UBR3,-1.428
UCUGAGAUGUUUAAUCGGC,PRAMEF14,-0.06017

For reference, 9 entries once more:

* UUAGAAGUAAAAGGUAAAG against HAUS2 | seed-corrected z-score 0.1738
* AAAGAUGUCACGGAGUAGC against IFRD2 | seed-corrected z-score 0.3591
* UUAGAUACUGGGCUGGUCA against XXYLT1 | seed-corrected z-score 0.3995
* UUCGGUUCAAUUCGAGAUG against LRIG3 | seed-corrected z-score 0.9727
* UCUUCGUCCGGGUAGAAGC against MYCN | seed-corrected z-score -0.4229
* UCUGAAGCAACGAUGCUCG against COPS4 | seed-corrected z-score 0.2359
* UUCCCGAAAAGAGACAUGG against IL1RL2 | seed-corrected z-score -0.5867
* UGUUCUUUGGUCUAGGUCC against ING4 | seed-corrected z-score -0.881
* UAACAGAAAUGUAGCAGGC against OR14C36 | seed-corrected z-score 0.05601

Source: PubChem BioAssay AID1159506 (NCATS, 2015).